Legend:
hERG = hERG (Homo sapiens, UniProt Q12809); conditions: read-out: IC50 patch; electrophysiology-determined values reported in the literature; cited from earlier work
hERG channel = hERG channel (Homo sapiens, UniProt Q12809, DEL141-380/DEL871-1005); assay: biochemical

Protein sequences, listed by entry. Tags and fused reporters are not part of them. Chains listed by the source or under a name are the forms on record and can include a tag or linker.
UniProt Q12809, with tags, fused parts or gaps DEL141-380/DEL871-1005: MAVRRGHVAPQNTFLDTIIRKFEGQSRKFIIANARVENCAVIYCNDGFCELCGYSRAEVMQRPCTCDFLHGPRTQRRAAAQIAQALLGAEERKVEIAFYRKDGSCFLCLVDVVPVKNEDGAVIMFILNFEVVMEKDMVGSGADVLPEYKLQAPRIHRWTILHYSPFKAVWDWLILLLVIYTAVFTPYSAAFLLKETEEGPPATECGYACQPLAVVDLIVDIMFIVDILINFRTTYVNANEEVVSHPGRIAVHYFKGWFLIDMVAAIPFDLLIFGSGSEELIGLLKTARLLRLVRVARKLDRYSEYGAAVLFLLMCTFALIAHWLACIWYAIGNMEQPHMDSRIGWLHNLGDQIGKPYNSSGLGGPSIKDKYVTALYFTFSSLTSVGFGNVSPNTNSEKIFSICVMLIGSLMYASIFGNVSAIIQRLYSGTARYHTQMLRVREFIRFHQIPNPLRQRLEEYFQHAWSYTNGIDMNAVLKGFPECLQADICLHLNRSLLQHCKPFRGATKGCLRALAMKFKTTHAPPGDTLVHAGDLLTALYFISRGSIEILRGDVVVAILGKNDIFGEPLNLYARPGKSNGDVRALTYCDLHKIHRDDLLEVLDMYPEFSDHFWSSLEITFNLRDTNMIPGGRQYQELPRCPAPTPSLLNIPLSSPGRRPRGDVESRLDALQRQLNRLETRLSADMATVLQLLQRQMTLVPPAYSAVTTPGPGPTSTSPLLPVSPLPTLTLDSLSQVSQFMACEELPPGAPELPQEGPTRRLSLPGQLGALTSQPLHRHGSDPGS

SMILES: CCN(CC)CCOc1ccc(C(=C(Cl)c2ccccc2)c2ccccc2)cc1 [Clomiphene]
- IC50 (hERG): 180 nM
- IC50 (hERG channel): 4.58 ± 0.598 µM

From US11579152B2, “Engineered hERG channel proteins, vesicles and methods of identifying small molecule pharmacological agents” (priority 2016, dated 2023)
